# Earlier results, collected in patent publication US20090111710A1, “CELLULAR SIGNALING PATHWAY BASED ASSAYS, REAGENTS AND KITS” (Cell NetwoRX LLC, priority 2005, published 2009).
# At least one compound was matched to its structure with a doubt left.
# Tested on: P13K
# Conditions: cited from earlier work
smiles,measurement,setting,value
COC[C@H]1OC(=O)c2coc3c2[C@@]1(C)C1=C(C3=O)[C@@H]2CCC(=O)[C@@]2(C)C[C@H]1OC(C)=O [Wortmannin],Selectivity: concentration at which other kinases are inhibited,higher than for P13K,100-fold higher
same,IC50,read-out: Reported Potency IC50,5 nM
